Laboratory results: paper PMC12242765

Protein sequences, listed by entry. Tags and fused reporters are not part of them.
UniProt P49739: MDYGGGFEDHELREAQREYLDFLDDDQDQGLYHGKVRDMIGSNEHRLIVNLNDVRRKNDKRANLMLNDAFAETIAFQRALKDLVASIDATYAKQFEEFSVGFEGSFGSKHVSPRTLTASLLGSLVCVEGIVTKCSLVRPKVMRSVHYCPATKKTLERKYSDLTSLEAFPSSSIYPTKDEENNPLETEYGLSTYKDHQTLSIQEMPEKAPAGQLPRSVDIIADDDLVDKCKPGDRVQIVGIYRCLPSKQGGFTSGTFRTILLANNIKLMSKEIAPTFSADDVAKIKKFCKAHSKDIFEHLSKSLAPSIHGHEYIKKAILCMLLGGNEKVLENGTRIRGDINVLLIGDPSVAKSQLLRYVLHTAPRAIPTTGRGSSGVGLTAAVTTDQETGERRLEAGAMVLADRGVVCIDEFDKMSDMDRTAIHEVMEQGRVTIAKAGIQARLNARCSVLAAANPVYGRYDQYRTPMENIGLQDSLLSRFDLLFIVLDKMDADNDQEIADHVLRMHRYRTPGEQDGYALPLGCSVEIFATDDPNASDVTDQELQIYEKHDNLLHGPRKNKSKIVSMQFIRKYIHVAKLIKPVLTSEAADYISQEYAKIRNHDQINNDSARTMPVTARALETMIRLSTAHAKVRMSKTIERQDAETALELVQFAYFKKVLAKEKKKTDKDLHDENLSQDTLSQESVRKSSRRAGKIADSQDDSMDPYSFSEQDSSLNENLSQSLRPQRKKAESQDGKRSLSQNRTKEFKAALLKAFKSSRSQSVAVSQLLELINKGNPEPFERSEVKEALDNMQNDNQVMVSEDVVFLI

B1: Ctf18 (protein, UniProt Q6NU40 1-1000)
chain: MEEYDLYGVEDDFESQFASELEVLAELEDDVSSRPGPQRSQLRTKLSFEEAISAGDPIRSNANSKPTGDSNGEALACIDTSKSKKRDASCIDFEEDEFSDSIYEPPITPKHKRARIEAVKKLDFGRDEYAGNSTALSDDITPPPSPNHSPKKNERDSKFSSCEAFEVSDMAPLQVTPTESEQKRVLKRPPVLEDYINVTSTDGSRVYMALKEDNDGAQQKQGNLKWNSGQQLHLLGVPFSYLKEQVNDEHRRKVLEESQRLTEMLNSQINEEFGENDSEILENDDNAGEEDDEDEPSSHSLWVDRFTPRHYTELLSDDYTNRCLLKWLKLWDTVVFGKERVVRKPKAIVDPRANHFKNQKEQQSKFKTKAQITEEILEAELDHHNRPKNKVSLLCGPPGLGKTTLAHVIARHAGYNVVEMNASDDRSPEAFRTRIEAATQMKSVLGVDERPNCLIIDEIDGAPTVSINMLLSLVNRKDAKEAEGGTEATTGKKKKKEGGLLLRPIICICNDQYVPSLRQLRQQAFMLNFPQTMPSRLVQRLYEIAVKQGMKADTGALMALCEKTENDIRSCINTLQFLHGRGKKELNMRSVQTMRIGLKDQNKGLFSVWQEIFQLPKIQRKRIGQEVATNDLHLLLGSENDSLGMLAKPPLNAVAQRFHHILHLSTSTGEYEKLTMGLYDNFLNMKVKESNFSTVCLALDWLEFTDIVNSTIMHGQNFQLMRYLPFLPVAFHLLFAASNVPRIAYPSSHYEAQSKLNQMQNLLNAMVSEISPAIRTRVGPQSLVLDALCLLLDVLSPKLRPVNTQLFSTKEKQQLAELINTMLAYNLTYHQERTMEGQYVYKLDPNVEDVCRFPDLPVRKPLTYQTKQLIAREIELERMRRTEAFQQARNAGRDNTTAAAAVKTADPKGAKSAAKPAALNHEQRLENIMKKATFEEKPEKDFFGRQIVKKVAAPVTASANQEESVERRIGKAVGNSDVWFRFNEGVSNAVRRNIYIKDLL
B2: TRAIP (endogenous, Xenopus egg extract, chromatin-bound) (enzyme, UniProt Q6NRV0 1-464)
chain: MPIRAYCTICSDFFDNARDVAAITCGHTFHQECLLQWFHSAPHRTCPQCRIQVSSRQIINKLFFDIGGEEETVLDAESLKNEVDRIKASLLVKEKEKRECQGLVDSLREMLDVRNVTIQSQQKELGDMEMLCSTLKKQIKFLDKQQSETKAAKDEARKLRNKLKTMESIEVLLQSQRSEVEEMIRDMGSGQAAVEQLAIYCVSLKKEYENLKEVRKSSAEMTEKLRKELFSSNHKAQKAELELTKVREELSASQKELHSADKEIMSLKKKVEFLQKTLTTPTASNEAISRLIFESPAPIGLERPKLRPPMMGNDINLDVTFDIDTPEHNTQKSVVAPFKKMKFDNKEHPLSSPTKNPLQESKGLMSWAGGRTGADEDDDLTLPSFIKNSLLHKKPVGSLLGLRQNTGAVRTGFDGLGGRTKFIQPSNLTEIRPLHQKMKRKKVSRPTACTSSLANQPRLEDFLK
B3: WRN helicase (enzyme, UniProt O93530 1-1436)
chain: MTSLQRKLPEWMSVKQQEDRIDDAKKSFCKKNILEDNLPFMKFNGSIVYSYESNDCSLLSEDIRSSLLEEDVLGFDIEWPPVYTKGKTGKVALIQVCVSEKKCYLFHISPMAGFPKGLKRLLEDESVRKVGVGIEGDQWKLMSDYELKLKGFIELSEMANQKLRCKEKWTFNGLIKHLFKEQLYKRKSYRCSNWDIFLLTEDQKLYAATDAYAGLLIYKKLEGMDAHESDSFRVGREGVADCKGVKRQLTDLSKGLMDLVNQVPNSFGCYTEAVRAVDILEDLSEKLEELRNIMKEASKAEGNGLHFQNSEDCSKKDKSILHVACKESLAEHKMDCKNADSQNNKDIDSCQNENRDEDFFMTLGISEEELYMMEREDDKKQTNPDYKLNKDSCDTNEEKDMSYVIESDEDFDSEIIKSLEDLDNSTEEALGTGVPQAGLIPAKSVDTVADEEEDEGIEEEDDDDDWDPSMPEPSAQHISCLKTYFGHSSFKPVQWKVVHSVLRERRDNLVVMATGYGKSLCYQFAPVYTSGIGIVICPLISLMEDQVLQLEMSNISSCFLGSAQSKNVLQDVKDGKMRVIYMTPEFCSRGISLLQDLDNRYGITLIAIDEAHCISEWGHDFRSAYRSLGSLKRMLPNVPIVALTATASPSIREDITKSLNLHNPQVTCTSFDRPNLYLDVARKTTNISIDLRQFLIKKQQGSGWEFEGATIVYCPTRKTSEQVTAELIKLGIACGTYHAGMGIKQRREVHHRFMRDEIHCVVATVAFGMGINKPDIRKVIHYGAPKEMESYYQEIGRAGRDGLPSCCHALWAQADMNFNRHMLGEIPNKGFREYKLKMLTKMEKYLNSSTCRRKIILSHFEDKQLRKASSGIMGTEKCCDNCKTRLICNISINDTEDNLQDFGPQAYKFISAVDVLGQKFGTGVPVLFLRGSTSQRVPDRFRNHSLFSSGKDQTEAFWKVLARQLITEGYLQESSGQTKFSTICGLTSKGSNWLIKANNEQCPSLLLPSNNELCLQRTRVSNFSSAQAHSSMVPHASSNTRSSMPKAGPEKMELKDKFSYQEAERLSKAAGVSKSSFKLQTPCKLSRPPEPEVSPRERELQTTLYGRLVVARQKIASERDILPAVLATNKVLVDMAKLRPTTSENMKKLDGVSEAKSAMLAPLLEVVKEFCIANSLKVDVFSGSVSQSESTFFTPREQERISLPESQRMSYSLFQEQNLSLKKIADVRCLSMAVVGMHLWQALKAGYSFDVQRAGLTPEMKKLITYAIKKPPINSDLSSFKAIREYVPANIDGYPIRMVISLLEKEGSSGAQGQPEFPTQKTLIQTEENPKNVSVQNTKHKVTMGKSMWIEKKPTQPATAELEVTKGKALAPIMLASWNEASLDADTEELFSESQSSTTRPRRRLPEWFGSTKGNAATRCIQESKNLGEEKGSFFD

These binders were tested against Mcm3 (X. laevis (endogenous in egg extract)) (UniProt P49739) (assay: affinity purification with mass spectrometry; Mcm3 IP from chromatin in S-phase (replisomes retained by CULi and p97i) and in mitosis (CyclinA1ΔN added); re-analysis of the authors' previously published mass spectrometry data (refs 4 and 10), peptides normalised to total Mcm2-7).

Binder | binding
B1 | binds
B2 | binds
B3 | binds

No constants are given. Whether binding was seen depends on the method and setting. In cells and extracts the contact can be indirect. A yes stands for co-enrichment or nearness to the bait. Other partners may have been found.
